At least one structure is not confirmed: it was looked up by name or label, or the drawing left a doubt.
Columns and labels:
[1] = tested on: INS1 cells; experiment: Cellular cAMP measurement (ELISA) in INS1 cells; format: cell-based, rat; settings: control and high glucose treated INS1 cells
[2] = tested on: INS1 cells; experiment: RNAseq of INS1 cells infected with ACREB compared to GFP and stimulated with FSK; format: cell-based, rat
Experimental: Transcriptome-wide studies were performed to identify CREB target genes that promote insulin expression and secretion. […] INS-1 insulinoma cells were cultured in RPMI (corning cellgro) containing 10% fetal bovine serum (Gemini Bio Products), 100 μg/mL penicillin-streptomycin and 1 mM sodium pyruvate (corning cellgro). MIN6 cells were grown in DMEM (corning cellgro) with 10% FBS, 100 μg/mL penicillin-streptomycin and 70 uM beta-mercaptoethanol. For chronic glucose experiments, cells were maintained under low (2.8 mM) or high (20 mM) glucose for 3 days. Exendin-4 (10 nM), Forskolin (10 μM), KCl (40 mM), DMOG (1 mM) and rapamycin (50 nM) were added to cells as indicated. Cellular cAMP levels were measured using an ELISA kit (Cayman Chemical Company) according to manufacturer's instructions. Total RNAs from cells or primary islets were extracted using Trizol and cDNA was generated using the Transcriptor First Strand cDNA Synthesis kit (Roche Applied Science). cDNAs were quantified on a lightcycler 480 instrument (Roche Applied Science). Gene expression data were presented relative to the expression of housekeeping gene L32 (rat samples) and 18S (mouse and human islets). […] Libraries were quantitated by Qubit (Invitrogen), and run on a MiSeq instrument with paired-end 75 bp reads using v3 chemistry (Illumina) Data were analyzed by tophat2 and cuffdiff against the mouse mm10 genome build. […]

[3] = tested on: CREB (Ser133) / CRTC2 in INS1 insulinoma cells; experiment: Immunoblot of CREB phosphorylation and CRTC2 dephosphorylation in INS1 insulinoma cells; format: cell-based, rat; settings: within 30 minutes
Experimental: (§1) INS-1 insulinoma cells were cultured in RPMI (corning cellgro) containing 10% fetal bovine serum (Gemini Bio Products), 100 μg/mL penicillin-streptomycin and 1 mM sodium pyruvate (corning cellgro). MIN6 cells were grown in DMEM (corning cellgro) with 10% FBS, 100 μg/mL penicillin-streptomycin and 70 uM beta-mercaptoethanol. For chronic glucose experiments, cells were maintained under low (2.8 mM) or high (20 mM) glucose for 3 days. Exendin-4 (10 nM), Forskolin (10 μM), KCl (40 mM), DMOG (1 mM) and rapamycin (50 nM) were added to cells as indicated. Cellular cAMP levels were measured using an ELISA kit (Cayman Chemical Company) according to manufacturer's instructions.
Total protein from cultured cells or primary islets was extracted in a Tris-HCl buffer containing 0.5% NP40, protease and phosphatase inhibitors. Proteins were quantified using Bradford reagent and separated using SDS-PAGE. For cellular fractionation, cells were resuspended in hypotonic lysis buffer (40 mM TrisHCl PH 7.4, 10 mM NaCl, 1 mM EDTA with DTT and protease inhibitors). Cells were lysed using a dounce homogenizer and centrifuged. Cytosolic supernatants were collected. Nuclear pellets were washed 3 times and resuspended in nuclear extraction buffer (40 mM TrisHCl PH 7.4, 420 mM NaCl, 10% Glycerol, 1 mM EDTA). Samples were sonicated and centrifuged. Nuclear supernatants were collected. […]

[4] = tested on: mouse pancreatic islets; experiment: Q-PCR of MafA and CREB target genes in isolated mouse pancreatic islets; format: cell-based
[5] = tested on: INS-1 cells or primary islets; experiment: Insulin secretion from INS-1 cells or primary islets; format: cell-based, mouse; settings: HFD islets relative to control
[6] = tested on: CRTC2 in beta cells from cultured islets; experiment: CRTC2 nuclear translocation in beta cells from cultured islets; format: cell-based, mouse
[7] = tested on: HIF-1α / PKIB in INS1 cells; experiment: HIF-1α and PKIB protein amounts in INS1 cells; format: cell-based, rat; settings: after 12-24 hours
[8] = tested on: PKA catalytic subunit in INS1 cells; experiment: Nuclear shuttling of PKA catalytic subunit in INS1 cells (cellular fractionation); format: cell-based, rat; settings: INS1 cells maintained under low glucose conditions
[9] = tested on: MafA promoter / PKIB promoter in INS1 cells; experiment: Chromatin immunoprecipitation (ChIP) in INS1 cells; format: cell-based, rat
[10] = tested on: PKIB in INS1 cells; experiment: PKIB expression (mRNA/protein) in INS1 cells; format: cell-based, rat; settings: INS1 cells exposed to FSK for 14 hours; rapamycin 50 nM
Experimental: Moreover, RNAi-mediated depletion of HIF-1α also disrupted PKIB induction, whereas HIF-1α over-expression potentiated it (FIG. 5f, FIGS. 10e and 10f).
as §1
Total RNAs from cells or primary islets were extracted using Trizol and cDNA was generated using the Transcriptor First Strand cDNA Synthesis kit (Roche Applied Science). cDNAs were quantified on a lightcycler 480 instrument (Roche Applied Science). […] Libraries were quantitated by Qubit (Invitrogen), and run on a MiSeq instrument with paired-end 75 bp reads using v3 chemistry (Illumina) Data were analyzed by tophat2 and cuffdiff against the mouse mm10 genome build. […]

SMILES	intracellular cAMP concentrations [1]	expression of synaptotagmins (Syt4, Syt5, Syt7) [2]	dephosphorylation of CRTC2 [3]	phosphorylation of CREB at Ser133 ([3]; FSK 10 μM, KCl 40 mM)	induction of PKIB ([4]; cultured islets, prolonged exposure)	upregulation of MafA and other CREB target genes ([4]; islets from high fat diet (HFD) mice)	expression of MafA ([4]; isolated mouse islets)	upregulation of MafA and other CREB target genes ([4]; pancreatic islets from lean mice)	insulin secretion [5]	CRTC2 nuclear translocation [6]	HIF-1α protein amounts [7]	nuclear amounts of PKA catalytic subunit [8]	amounts of CRTC2 over the MafA promoter [9]	HIF1 protein amounts over consensus binding sites on the PKIB promoter ([9]; prolonged (16 hrs) vs short term (2 hr) FSK)	upregulation of PKIB [10]
C=C[C@@]1(C)CC(=O)[C@]2(O)[C@@]3(C)[C@@H](O)CCC(C)(C)[C@@H]3[C@H](O)[C@H](OC(C)=O)[C@@]2(C)O1 [FSK, Forskolin]	increased intracellular cAMP concentrations comparably	stimulated the expression	dephosphorylation of CRTC2	promoted the phosphorylation of CREB at Ser133	led to induction of PKIB	only modest effects	increased the expression of MafA	robust upregulation	attenuated	triggered CRTC2 nuclear translocation	increased HIF-1α protein amounts	promoted an increase	increased following FSK treatment	increased following prolonged but not short term FSK treatment	
CO[C@H]1C[C@@H]2CC[C@@H](C)[C@@](O)(O2)C(=O)C(=O)N2CCCC[C@H]2C(=O)O[C@H]([C@H](C)C[C@@H]2CC[C@@H](O)[C@H](OC)C2)CC(=O)[C@H](C)/C=C(\C)[C@@H](O)[C@@H](OC)C(=O)[C@H](C)C[C@H](C)/C=C/C=C/C=C/1C [rapamycin]															effectively blocked the upregulation of PKIB
